Results published in patent US7655425.
These are yes or no findings as the source states them, for the method shown. Some binding calls cover weakened binding; strength is not graded here.

Protein sequences, listed by entry. Tags and fused reporters are not part of them. Residues count along the entry.
UniProt P10147, residues 24-92: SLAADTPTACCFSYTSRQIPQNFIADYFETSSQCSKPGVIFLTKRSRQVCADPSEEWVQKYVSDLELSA

T1: murine CC-CKR-3 (murine) (UniProt P51680)
T1 sequence (looked up): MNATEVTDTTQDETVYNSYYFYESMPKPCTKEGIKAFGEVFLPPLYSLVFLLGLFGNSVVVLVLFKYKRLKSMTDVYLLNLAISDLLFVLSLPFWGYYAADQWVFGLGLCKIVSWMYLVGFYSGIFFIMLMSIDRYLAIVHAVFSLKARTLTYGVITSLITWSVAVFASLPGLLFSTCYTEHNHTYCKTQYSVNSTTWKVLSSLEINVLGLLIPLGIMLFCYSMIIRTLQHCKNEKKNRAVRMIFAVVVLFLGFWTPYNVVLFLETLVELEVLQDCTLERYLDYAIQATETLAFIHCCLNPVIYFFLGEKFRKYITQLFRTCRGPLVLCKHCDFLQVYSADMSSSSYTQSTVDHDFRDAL

T2: human CC-CKR-3 (K5.5) (human) (UniProt P51679)
T2 sequence: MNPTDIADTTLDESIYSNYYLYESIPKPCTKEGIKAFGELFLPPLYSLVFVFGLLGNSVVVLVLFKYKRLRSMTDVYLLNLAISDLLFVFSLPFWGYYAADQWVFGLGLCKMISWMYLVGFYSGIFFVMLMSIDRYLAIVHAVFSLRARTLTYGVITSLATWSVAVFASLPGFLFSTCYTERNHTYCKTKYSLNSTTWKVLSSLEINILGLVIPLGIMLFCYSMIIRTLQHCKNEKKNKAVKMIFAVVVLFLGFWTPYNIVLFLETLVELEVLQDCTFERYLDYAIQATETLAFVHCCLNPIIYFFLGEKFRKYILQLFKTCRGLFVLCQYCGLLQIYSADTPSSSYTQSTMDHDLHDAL

T3: human CC-CKR-3 (K5.5) (human), P51679
T3 chain: T2 sequence

B1: RANTES (Raised on Activation, Normal T-cell derived and Secreted), P13501 24-91 (ligand, UniProt P13501 24-91, looked up)
chain: SPYSSDTTPCCFAYIARPLPRAHIKEYFYTSGKCSNPAVVFVTRKNRQVCANPEKKWVREYINSLEMS

Experiments:
Experiment in all cases: equilibrium competition radioligand binding on transfected HL-60 cells
murine CC-CKR-3 (murine) = molecular target: T1, murine CC-CKR-3 (murine)
[1] = molecular target: T2, human CC-CKR-3 (K5.5) (human)
[2] = molecular target: T3, human CC-CKR-3 (K5.5) (human), P51679; details: remark: other sources report otherwise

Row | Molecule | binding (murine CC-CKR-3 (murine)) | binding [1] | binding [2]
1 | MIP-1α (Macrophage inflammatory polypeptide-1α) (from UniProt P10147 24-92) (ligand) | binds | binds | 
2 | RANTES (Raised on Activation, Normal T-cell derived and Secreted) (from UniProt P13501 24-91) (ligand) | binds |  | 
3 | B1 |  |  | binds
